Publication PMC7999522
Results are given in words; binding and its absence hold for the method and conditions named. In cells and extracts the contact can be indirect. Some entries that bind do so weakly or less than the wild type.

Protein sequences, listed by entry. Tags and fused reporters are not part of them.
UniProt Q14152: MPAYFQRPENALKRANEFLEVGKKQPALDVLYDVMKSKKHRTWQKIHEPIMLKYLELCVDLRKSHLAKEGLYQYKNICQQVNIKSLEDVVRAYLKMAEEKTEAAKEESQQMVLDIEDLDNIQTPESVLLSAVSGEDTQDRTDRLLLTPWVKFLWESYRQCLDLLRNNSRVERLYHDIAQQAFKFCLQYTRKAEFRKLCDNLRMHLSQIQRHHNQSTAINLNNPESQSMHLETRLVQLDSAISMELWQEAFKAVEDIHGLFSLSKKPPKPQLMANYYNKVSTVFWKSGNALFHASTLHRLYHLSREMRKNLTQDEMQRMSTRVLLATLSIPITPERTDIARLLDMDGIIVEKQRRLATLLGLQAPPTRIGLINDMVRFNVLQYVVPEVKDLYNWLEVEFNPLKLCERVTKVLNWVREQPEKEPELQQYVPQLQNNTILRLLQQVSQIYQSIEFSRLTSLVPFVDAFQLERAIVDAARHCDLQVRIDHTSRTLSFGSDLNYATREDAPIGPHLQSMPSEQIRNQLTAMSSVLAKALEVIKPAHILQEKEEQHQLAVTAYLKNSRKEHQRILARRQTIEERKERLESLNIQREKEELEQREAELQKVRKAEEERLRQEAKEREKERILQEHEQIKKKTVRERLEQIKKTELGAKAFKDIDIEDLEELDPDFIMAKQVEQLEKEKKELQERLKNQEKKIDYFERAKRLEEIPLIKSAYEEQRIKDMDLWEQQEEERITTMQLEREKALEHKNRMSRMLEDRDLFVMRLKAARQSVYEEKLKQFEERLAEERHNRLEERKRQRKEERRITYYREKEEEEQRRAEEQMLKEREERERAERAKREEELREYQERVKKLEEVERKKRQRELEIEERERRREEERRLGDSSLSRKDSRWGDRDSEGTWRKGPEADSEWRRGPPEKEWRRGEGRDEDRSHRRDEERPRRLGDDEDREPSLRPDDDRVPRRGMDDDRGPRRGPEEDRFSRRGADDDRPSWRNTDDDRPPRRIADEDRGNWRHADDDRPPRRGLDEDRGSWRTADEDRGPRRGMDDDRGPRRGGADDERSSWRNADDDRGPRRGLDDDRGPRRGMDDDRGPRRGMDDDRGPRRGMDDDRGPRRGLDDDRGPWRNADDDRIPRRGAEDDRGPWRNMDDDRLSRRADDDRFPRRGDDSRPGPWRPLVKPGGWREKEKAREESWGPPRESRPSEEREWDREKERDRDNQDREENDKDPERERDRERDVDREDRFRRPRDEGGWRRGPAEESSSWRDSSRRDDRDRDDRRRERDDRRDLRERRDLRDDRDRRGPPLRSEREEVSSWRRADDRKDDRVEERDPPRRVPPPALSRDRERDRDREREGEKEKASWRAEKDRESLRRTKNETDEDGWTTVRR
UniProt P67809: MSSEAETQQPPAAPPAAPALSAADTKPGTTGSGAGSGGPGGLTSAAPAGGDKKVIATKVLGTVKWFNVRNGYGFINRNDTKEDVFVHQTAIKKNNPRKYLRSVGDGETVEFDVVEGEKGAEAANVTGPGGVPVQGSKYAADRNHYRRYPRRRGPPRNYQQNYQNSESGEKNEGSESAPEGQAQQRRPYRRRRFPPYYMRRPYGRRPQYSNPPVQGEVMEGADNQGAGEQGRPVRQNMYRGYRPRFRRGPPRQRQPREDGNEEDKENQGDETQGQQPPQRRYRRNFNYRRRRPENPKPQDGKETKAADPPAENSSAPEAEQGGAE

Target: myc-BirA*-eIF3A fusion protein (UniProt Q14152)
Assay: co-IP; cells transfected with the myc-BirA*-eIF3A plasmid as for BioID; RIPA lysate, anti-c-Myc magnetic beads overnight at 4 °C, three washes with RIPA buffer; Western blot for the endogenous partner

binding: binds
Substance: YB-1 (from UniProt P67809 1-324)
